Measured values from paper doi:10.1101/2020.06.16.156083.
Results are given in words; binding and its absence hold for the method and conditions named. Binding seen in cells or lysates may run through a third protein. Some binding calls cover weakened binding; strength is not graded here.

Protein sequences, listed by entry. Tags and fused reporters are not part of them.
UniProt Q60722: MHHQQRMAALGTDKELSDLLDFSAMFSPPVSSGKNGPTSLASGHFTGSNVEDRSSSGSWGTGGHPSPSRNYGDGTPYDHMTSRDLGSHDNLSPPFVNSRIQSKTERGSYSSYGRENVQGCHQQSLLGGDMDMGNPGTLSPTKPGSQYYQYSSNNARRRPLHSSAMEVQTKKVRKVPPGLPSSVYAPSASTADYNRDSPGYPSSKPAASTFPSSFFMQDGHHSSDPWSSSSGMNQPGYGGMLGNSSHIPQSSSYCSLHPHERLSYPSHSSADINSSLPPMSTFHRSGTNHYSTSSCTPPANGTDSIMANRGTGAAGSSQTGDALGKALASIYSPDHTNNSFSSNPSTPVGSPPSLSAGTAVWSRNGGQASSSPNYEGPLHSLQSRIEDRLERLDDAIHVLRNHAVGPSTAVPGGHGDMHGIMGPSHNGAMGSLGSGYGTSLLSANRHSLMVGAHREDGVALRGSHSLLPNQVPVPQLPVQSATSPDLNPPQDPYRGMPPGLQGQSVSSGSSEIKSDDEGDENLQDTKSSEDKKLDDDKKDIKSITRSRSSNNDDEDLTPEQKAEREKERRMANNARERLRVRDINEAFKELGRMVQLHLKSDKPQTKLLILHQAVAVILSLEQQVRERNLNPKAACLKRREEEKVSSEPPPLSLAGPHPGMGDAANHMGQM
UniProt P39880: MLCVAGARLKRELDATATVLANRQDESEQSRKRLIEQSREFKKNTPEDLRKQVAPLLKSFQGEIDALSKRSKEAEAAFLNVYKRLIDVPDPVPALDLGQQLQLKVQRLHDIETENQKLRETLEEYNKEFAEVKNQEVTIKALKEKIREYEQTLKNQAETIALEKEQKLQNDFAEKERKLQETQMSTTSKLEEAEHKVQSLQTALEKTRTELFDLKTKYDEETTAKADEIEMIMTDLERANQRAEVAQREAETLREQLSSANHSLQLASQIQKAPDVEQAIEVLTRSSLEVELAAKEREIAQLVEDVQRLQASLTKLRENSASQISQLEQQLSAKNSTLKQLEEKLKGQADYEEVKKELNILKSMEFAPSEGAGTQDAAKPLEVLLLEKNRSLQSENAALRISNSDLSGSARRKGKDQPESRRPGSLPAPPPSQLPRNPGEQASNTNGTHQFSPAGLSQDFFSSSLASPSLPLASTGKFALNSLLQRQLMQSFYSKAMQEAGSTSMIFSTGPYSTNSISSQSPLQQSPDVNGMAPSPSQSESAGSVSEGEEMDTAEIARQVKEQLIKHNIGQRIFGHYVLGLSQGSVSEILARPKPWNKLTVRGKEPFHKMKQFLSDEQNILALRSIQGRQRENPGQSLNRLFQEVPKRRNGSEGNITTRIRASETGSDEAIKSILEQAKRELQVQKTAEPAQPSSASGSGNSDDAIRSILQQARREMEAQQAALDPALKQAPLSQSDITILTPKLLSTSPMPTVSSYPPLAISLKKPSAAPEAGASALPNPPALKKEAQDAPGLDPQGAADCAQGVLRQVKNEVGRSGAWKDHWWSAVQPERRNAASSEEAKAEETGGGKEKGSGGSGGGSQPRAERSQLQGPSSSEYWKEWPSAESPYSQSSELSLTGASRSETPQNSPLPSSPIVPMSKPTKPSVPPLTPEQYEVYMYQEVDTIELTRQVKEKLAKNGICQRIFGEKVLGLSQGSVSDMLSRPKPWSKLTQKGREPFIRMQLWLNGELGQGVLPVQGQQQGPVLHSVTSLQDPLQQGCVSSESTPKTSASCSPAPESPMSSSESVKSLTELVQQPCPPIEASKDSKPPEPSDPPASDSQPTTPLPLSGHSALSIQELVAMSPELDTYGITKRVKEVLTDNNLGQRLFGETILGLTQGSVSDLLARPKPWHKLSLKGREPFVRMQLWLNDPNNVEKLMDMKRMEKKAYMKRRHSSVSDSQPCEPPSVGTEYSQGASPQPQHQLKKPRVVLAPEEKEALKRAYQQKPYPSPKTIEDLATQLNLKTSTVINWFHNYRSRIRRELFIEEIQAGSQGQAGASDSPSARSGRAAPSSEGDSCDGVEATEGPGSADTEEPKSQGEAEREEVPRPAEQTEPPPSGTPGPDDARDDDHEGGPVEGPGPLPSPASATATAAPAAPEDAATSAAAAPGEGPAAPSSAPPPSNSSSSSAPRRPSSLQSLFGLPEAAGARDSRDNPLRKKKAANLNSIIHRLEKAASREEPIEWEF
UniProt Q60987: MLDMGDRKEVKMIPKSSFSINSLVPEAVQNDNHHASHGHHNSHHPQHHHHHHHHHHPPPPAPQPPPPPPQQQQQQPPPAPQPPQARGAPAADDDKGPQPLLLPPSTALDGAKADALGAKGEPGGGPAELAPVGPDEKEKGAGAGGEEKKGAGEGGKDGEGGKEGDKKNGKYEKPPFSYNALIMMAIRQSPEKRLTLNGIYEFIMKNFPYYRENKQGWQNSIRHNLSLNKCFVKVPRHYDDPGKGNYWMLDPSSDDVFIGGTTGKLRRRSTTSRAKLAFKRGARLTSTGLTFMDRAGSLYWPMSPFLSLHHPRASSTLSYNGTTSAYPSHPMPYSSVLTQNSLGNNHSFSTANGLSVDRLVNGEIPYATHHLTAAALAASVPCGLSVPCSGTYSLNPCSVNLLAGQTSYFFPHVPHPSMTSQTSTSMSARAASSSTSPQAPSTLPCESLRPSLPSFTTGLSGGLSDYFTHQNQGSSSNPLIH
UniProt P51532: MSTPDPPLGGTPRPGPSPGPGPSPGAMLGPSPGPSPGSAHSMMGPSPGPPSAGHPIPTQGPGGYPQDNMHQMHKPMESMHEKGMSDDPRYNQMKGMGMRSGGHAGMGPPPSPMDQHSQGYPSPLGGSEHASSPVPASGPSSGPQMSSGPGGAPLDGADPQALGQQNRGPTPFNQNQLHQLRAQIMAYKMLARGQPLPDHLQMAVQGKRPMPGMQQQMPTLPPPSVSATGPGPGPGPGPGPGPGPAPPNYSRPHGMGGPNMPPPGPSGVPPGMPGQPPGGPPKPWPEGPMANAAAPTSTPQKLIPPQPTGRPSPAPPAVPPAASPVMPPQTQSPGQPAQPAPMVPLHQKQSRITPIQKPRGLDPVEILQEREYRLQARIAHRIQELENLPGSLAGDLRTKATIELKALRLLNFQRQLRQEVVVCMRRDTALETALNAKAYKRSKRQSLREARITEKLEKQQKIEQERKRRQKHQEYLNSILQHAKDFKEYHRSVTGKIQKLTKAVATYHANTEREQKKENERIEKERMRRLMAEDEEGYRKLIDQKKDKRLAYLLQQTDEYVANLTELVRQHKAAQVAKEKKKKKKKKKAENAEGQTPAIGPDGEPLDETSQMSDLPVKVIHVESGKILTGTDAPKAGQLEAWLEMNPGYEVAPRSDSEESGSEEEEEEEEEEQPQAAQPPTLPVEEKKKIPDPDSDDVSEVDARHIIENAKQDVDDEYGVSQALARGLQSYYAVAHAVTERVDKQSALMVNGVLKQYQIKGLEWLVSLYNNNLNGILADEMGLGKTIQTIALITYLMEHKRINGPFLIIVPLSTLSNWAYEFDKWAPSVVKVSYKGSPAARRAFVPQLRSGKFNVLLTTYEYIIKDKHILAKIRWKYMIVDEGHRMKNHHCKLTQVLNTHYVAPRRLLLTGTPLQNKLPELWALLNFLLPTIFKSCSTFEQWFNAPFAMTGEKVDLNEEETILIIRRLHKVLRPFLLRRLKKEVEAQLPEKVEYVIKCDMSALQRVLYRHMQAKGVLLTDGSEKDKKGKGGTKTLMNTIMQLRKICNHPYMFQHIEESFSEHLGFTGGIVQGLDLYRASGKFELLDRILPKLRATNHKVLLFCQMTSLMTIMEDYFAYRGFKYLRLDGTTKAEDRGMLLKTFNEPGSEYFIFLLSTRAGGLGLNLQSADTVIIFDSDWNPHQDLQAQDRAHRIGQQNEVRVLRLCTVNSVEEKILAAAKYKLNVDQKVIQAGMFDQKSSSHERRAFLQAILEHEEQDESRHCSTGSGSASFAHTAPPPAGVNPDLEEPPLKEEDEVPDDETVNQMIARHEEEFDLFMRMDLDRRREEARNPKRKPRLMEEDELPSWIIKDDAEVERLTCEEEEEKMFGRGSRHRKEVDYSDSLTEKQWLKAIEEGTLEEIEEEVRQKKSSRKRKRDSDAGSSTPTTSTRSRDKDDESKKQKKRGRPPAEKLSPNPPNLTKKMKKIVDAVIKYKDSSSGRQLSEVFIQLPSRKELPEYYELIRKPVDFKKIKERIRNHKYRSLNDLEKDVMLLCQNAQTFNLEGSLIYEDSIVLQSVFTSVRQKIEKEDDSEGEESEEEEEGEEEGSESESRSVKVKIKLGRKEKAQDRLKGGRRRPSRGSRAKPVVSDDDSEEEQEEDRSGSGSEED
UniProt Q7M6Y2: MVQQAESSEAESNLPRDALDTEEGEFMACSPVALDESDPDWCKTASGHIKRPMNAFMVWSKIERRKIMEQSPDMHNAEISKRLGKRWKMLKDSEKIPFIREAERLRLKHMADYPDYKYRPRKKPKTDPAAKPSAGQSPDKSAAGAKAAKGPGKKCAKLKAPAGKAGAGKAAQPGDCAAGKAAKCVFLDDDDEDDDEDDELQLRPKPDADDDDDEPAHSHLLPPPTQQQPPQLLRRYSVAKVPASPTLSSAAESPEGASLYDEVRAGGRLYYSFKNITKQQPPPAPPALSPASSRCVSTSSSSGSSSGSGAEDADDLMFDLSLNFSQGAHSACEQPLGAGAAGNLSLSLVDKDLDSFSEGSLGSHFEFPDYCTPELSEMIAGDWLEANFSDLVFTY

B1: POU3F3 (BRN1), overexpressed from pCMV5 rBrn1 (protein, UniProt Q63262 1-497)
chain: MATAASNPYLPGNSLLAAGSIVHSDAAGAGGGGGGGGGGGGGAGGGGGGMQPGSAAVTSGAYRGDPSSVKMVQSDFMQGAMAASNGGHMLSHAHQWVTALPHAAAAAAAAAAAAVEASSPWSGSAVGMAGSPQQPPRPPPPPPQGPDVKGGVGREDLHAGTALHHRGPPHLGPPPPPPHQGHPGGWGAAAAAAAAAAAAAAAAHLPSMAGGQQPPPQSLLYSQPGGFTVNGMLSAPPGPGGGGGGAGGGAQSLVHPGLVRGDTPELAEHHHHHHHHAHPHPPHPHHAQGPPHHGGGGAGPGLNSHDPHSDEDTPTSDDLEQFAKQFKQRRIKLGFTQADVGLALGTLYGNVFSQTTICRFEALQLSFKNMCKLKPLLNKWLEEADSSTGSPTSIDKIAAQGRKRKKRTSIEVSVKGALESHFLKCPKPSAQEITNLADSLQLEKEVVRVWFCNRRQKEKRMTPPGIQQQTPDDVYSQVGTVSADTPPPHHGLQTSVQ

Biological target: TCF-4 (transcription factor 4), long isoform, overexpressed from CAG-TCF-4-IRES-GFP (UniProt Q60722)
Test: co-IP

binding, binds:
CUX1 (p200 CUX1), Myc-tagged, overexpressed from pXJ42-p200 CUX1 (from UniProt P39880 1-1505)
FOXG1, overexpressed from CAG-Foxg1-IRES-RFP (from UniProt Q60987 1-481)
SMARCA4 (BRG1), overexpressed from pBJ5-hBRG1 (from UniProt P51532 1-1647)
SOX11, overexpressed from CAG-Sox11-IRES-GFP (from UniProt Q7M6Y2 1-395)
B1
